Results are given in words; binding and its absence hold for the method and conditions named. In cells and extracts the contact can be indirect. Some results given as binding are weak or reduced against the parent protein; the word gives no strength.
What was measured:
FLAG-Gal3 = FLAG-Gal3 (UniProt P17931); experiment: co-IP; HEK293T expressing FLAG-Gal3; untreated or 1 mM LLOMe 30 min; NP-40 lysate, anti-FLAG antibody, Dynabeads; immunoblot (Fig. 6C)
FLAG-eIF2α = FLAG-eIF2α (UniProt P05198); experiment: co-IP; HEK293T expressing FLAG or FLAG-eIF2α, untreated or 1 mM LLOMe 30 min; NP-40 lysate, anti-FLAG antibody, Dynabeads; immunoblot (Fig. 3D)

Chains of the proteins cited; added tags and fusions are not shown.
UniProt P17931: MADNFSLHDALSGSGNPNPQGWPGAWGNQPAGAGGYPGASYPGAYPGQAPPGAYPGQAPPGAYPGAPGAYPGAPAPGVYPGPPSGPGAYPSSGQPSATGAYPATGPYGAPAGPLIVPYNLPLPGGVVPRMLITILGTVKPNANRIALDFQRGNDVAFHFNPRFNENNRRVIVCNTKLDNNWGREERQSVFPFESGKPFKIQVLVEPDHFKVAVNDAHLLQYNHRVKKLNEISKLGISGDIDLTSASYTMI
UniProt P05198: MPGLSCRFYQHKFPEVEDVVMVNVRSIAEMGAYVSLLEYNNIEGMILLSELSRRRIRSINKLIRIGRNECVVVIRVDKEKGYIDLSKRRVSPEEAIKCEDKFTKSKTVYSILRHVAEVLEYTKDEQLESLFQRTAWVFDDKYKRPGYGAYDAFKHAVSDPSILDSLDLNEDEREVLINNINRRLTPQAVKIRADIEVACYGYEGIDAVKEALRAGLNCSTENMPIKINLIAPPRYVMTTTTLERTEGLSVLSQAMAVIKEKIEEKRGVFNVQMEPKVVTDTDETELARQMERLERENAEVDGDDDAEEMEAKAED
UniProt P19525: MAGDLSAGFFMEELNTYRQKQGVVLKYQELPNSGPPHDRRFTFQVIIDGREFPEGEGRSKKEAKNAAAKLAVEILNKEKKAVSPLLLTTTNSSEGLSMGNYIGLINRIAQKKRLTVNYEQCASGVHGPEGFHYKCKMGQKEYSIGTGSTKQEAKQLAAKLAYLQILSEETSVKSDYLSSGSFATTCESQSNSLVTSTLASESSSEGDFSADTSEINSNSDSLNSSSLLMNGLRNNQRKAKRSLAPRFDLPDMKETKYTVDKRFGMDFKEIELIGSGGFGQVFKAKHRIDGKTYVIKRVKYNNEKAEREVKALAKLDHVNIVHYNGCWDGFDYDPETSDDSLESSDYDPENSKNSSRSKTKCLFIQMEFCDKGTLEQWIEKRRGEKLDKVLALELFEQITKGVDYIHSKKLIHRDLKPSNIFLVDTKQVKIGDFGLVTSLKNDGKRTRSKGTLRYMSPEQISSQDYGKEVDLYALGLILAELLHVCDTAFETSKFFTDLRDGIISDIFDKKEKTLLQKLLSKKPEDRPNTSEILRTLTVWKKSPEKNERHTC
UniProt Q8WUM4: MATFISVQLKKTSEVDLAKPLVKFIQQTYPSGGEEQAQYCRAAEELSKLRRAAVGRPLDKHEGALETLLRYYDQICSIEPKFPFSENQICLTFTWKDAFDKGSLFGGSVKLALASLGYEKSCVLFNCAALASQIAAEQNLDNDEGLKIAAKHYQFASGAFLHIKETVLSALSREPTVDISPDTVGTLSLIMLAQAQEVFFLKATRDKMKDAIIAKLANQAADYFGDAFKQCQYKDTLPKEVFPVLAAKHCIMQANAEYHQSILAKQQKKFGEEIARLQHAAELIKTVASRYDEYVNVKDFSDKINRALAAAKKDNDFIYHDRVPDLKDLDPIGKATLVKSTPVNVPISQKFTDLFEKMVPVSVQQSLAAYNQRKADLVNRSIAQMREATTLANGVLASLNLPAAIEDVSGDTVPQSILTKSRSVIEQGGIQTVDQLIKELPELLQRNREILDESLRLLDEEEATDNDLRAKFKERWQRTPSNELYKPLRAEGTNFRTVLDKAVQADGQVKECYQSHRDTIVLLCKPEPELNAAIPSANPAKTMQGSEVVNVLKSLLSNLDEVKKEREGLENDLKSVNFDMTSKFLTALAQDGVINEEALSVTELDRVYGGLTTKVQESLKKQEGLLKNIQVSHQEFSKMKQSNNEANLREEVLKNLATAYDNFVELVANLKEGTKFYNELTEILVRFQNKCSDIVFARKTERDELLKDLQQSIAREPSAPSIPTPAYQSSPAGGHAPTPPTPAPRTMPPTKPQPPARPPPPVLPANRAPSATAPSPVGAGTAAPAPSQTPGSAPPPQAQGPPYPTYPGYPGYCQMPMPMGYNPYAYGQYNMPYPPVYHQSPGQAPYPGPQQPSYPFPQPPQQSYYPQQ

Substance | binding (FLAG-Gal3) | binding (FLAG-eIF2α)
PKR (Protein Kinase R), endogenous (from UniProt P19525 1-551) | binds | binds
ALIX (ALG-2-Interacting Protein X), endogenous (from UniProt Q8WUM4 1-868) | binds | –

Source: article PMC11649789
